{"source": "patent US12454541B2", "about": "“Reagent for measuring oxygen concentration in cell and tissue” (NATIONAL UNIVERSITY CORPORATION GUNMA UNIVERSITY, priority 2019, dated 2025)", "system": "HeLa cells", "assay": "Phosphorescence imaging and microplate-reader phosphorescence intensity of HeLa cells with added iridium complex", "format": "cell-based", "conditions": "500 nM", "experimental": "Luminescence micrograph: inverted research microscope, IX-71; manufactured by Olympus Corporation\nLuminescence intensity, luminescence lifetime: microplate reader, Infinite 200 PRO; manufactured by TECAN.\nUsing the iridium complexes developed, imaging experiments for living cells were carried out. […] For quantitative evaluation, the phosphorescence intensity was measured using a microplate reader (FIG. 4).\nFor C6-BEDA and C545T-BEDA, intracellular oxygen responsiveness was evaluated. […] Further, as a result of measurement of the phosphorescence intensity using a microplate reader, it was shown that the phosphorescence intensity increases 3-fold or more under an oxygen partial pressure of 2.5% (FIG. 4).", "note": "Some of these results come from one statement about several compounds together. At least one structure is not confirmed: it was looked up by name or label, or the drawing left a doubt.", "data": [{"compound": "CC1(C)CCN2CCC(C)(C)c3c2c1cc1[c-]c(-c2nc4ccccc4s2)c(=O)oc31.CC1(C)CCN2CCC(C)(C)c3c2c1cc1[c-]c(-c2nc4ccccc4s2)c(=O)oc31.CCCCNCCNCCCC.F[P-](F)(F)(F)(F)F.[Ir+3]", "note": "[C545T-BEDA, Bis[10-(benzo[d]thiazol-2-yl)-1,1,7,7-tetramethyl-2,3,6,7-tetrahydro-1H-pyrano [2,3-f]pyrido[3,2,1-ij]quinolin-11(5H)-one-κN, κC^4]N^1,N^2-dibutylethane-1,2-diamine iridium(III) hexafluorophosphate]", "values": [{"measurement": "time for incorporation into cells", "result": "≤ 2", "unit": "h"}, {"measurement": "increase in phosphorescence intensity under oxygen partial pressure of 2.5%", "setting": "2 hours culture, 2.5% vs 21% oxygen partial pressure, microplate reader", "result": "≥ 3", "unit": "fold"}]}]}
